The record followed here is PubChem BioAssay AID1508600 (Functional Genomics Laboratory (NCATS/FGL), 2020).

In all, about 53,000 sequences went through this assay and about 3,700 (7%) were called active.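 Rule for the calls: active = gene knockdowns whose robust z-score for IL-1 alpha signal is at least 2 or at most -2, so actives lie on both sides; inactive = the rest.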 The list shows a part of the results.

A short description of this test: Components of the Cytosolic LPS Sensing Pathway: Gene Identification via Genome-wide siRNA Screen.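 Note: robust z of the log signal after scaling to non-targeting control siRNA wells of the plate.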 As to conditions: RAW264.7 macrophages, IL-1a HTRF, actives lie on both sides, screened at 100 nM (by protocol), cells primed 5 h with Pam3CSK4 first. Summed up: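 Supernatant IL-1a by HTRF from RAW264.7 cells primed with Pam3CSK4 (5 hours) and transfected with LipidA (24 hour) after 48h siRNA knockdown at 100 nM; cell viability checked with CellTiter-Glo.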
In general terms: In TR-FRET formats the signal depends on donor and acceptor labels being close together.
As to GGGAGAGCACAGAUGUGGATT against Dock8, the z-score is inactive: -1.28.

Take CGACCUACAUCAUUAUGAATT against Chrm3: the z-score is inactive: 0.0125.

In the case of GGACAUUCCUGAACAUAAUTT against Pcdha3, the z-score is inactive: -1.17.

As for GGAUACAAUACACGGACGATT against Syt14, the z-score was inactive: -0.0737.

Turning to CCCUCAGCUACAUUCUCCUTT against Olfr1313, the z-score was inactive: -0.784.

On to CCCUGAAGUUUAUGCAACATT against Ttyh2, for which the z-score was active: -3.02.

In the case of GGACACUUGUCUUCACUUGTT against Fancc, the z-score is inactive: 0.339.

Regarding CAUGGUUUUUAGAGACAAUTT against Olfr774, the z-score is inactive: 0.123.

In the case of GCUAGAGAAAUGGAAUUUATT against Kansl3, the z-score was inactive: -0.653.

Turning to GCUGUCACUUCAAUAACUGTT against Bach2os, the z-score was inactive: 0.957.

GGGUCACCAUCAAGAUGGATT against Erg: the z-score is inactive: 0.0262.

As to GGUGCAUAAAACCCUUAAATT against Rbms1, the z-score is inactive: -1.56.

Consider GCUCCUGAACUAAUACAAGTT against Melk, for which the z-score is active: 5.

In the case of GGAAGGAGAUUACAUUGUUTT against Rhpn2, the z-score was inactive: 1.5.

As to CGAAGUACCUGAAUUUUGCTT against Pde6b, the z-score is inactive: -1.14.

Regarding GGAAAAAUGUGCUGUGUGGTT against Tcea1, the z-score was inactive: -1.67.

For GGAUAUAACCAUCCUCUGUTT against Zscan29, the z-score was inactive: 0.578.

Consider GGCUCUUUACAGAUAUUCCTT against Cdc42se2, for which the z-score is inactive: -0.335.

In the case of GCAGUUACGUAGAAAGUCUTT against Prdx6b, the z-score is inactive: -1.25.

With GGUCAACAACAACUCCGUUTT against Ret, the z-score was inactive: 0.625.

As to GGUUUUUAACCAAACAUGATT against Actr3, the z-score is inactive: -0.784.

Consider CCUCAAUUCGGACAAGCUGTT against Scnn1a, for which the z-score was inactive: -1.29.

With GCAACAUCCAGGCUUGCCUTT against Tmem107, the z-score was inactive: -0.874.

On to GGGUGGAGAACCAAGUUUUTT against Tmed6, for which the z-score is active: 3.21.

With GAGCCUUUCCUUUCUGGACTT against Olfr466, the z-score is inactive: 0.292.

As for GGCAAUCCCAUAGAGGCUGTT against Mief2, the z-score is active: -2.64.

As for GCAGUGGGAAUCGAUAAAGTT against Fgfr2, the z-score is inactive: -0.876.

On to CGUAGUGAUCCUGUUCCAGTT against Lsr, for which the z-score was inactive: -0.745.

For the sequence GCCAGACUGAGCUACAAAATT against Gm9732, the z-score was inactive: -1.3.

On to GGUAUGAGUACAAAUACUGTT against Tek, for which the z-score is inactive: 1.97.

With UUACUCAGUUCUCACCUUCTT against Olfr970, the z-score is inactive: -0.24.

Regarding GCGUGGAAAAGUGUUACCATT against Rhbdd1, the z-score is inactive: 0.691.

Regarding GGCUAAGUGGGUGUUCACGTT against Slc24a4, the z-score is inactive: -0.214.

With CCCAAGAAUGACCAAGUAGTT against Gpr17, the z-score is inactive: -1.07.

With CCAUUACAGGGUUUUUUAUTT against Slc37a3, the z-score is inactive: -0.62.

Take GGCUUUUGACUUUACCCUATT against Acy3: the z-score is inactive: -1.3.

Consider GGAGUCGUCAACUCUGGCUTT against Lsm10, for which the z-score is inactive: 0.161.

Regarding GGUGGAUGAAGUUAUUGAUTT against Vamp4, the z-score was inactive: 0.809.

With GGGCAAAGCCUUCAACCCUTT against Insl6, the z-score was inactive: -0.038.

UUCGGAUCCUAACUUCAACTT against Zmynd12: the z-score was inactive: -0.716.

GCCUGUCGUACCUCCUUUATT against Folr2: the z-score was inactive: 0.793.

As to GGGAAAGAAAGGGUACAAUTT against Nfxl1, the z-score was inactive: -0.123.

Take GACCGAGUUCAAAGCGAACTT against Atp5e: the z-score was inactive: 0.323.

For the sequence GGCUGUCAUGCAUUAUAUGTT against Tfeb, the z-score is inactive: -0.535.

Consider CCGGAAGAUCAAUAUAAGATT against Crisp2, for which the z-score is inactive: 1.33.

On to GGCUAUUGUUUCAUCCUGATT against Emp1, for which the z-score is inactive: -1.25.

Regarding GGAACUUUUUAAGAUGCGUTT against Ranbp1, the z-score was inactive: -0.36.

In the case of GGAACUACUUUGAGAGCACTT against Arl2, the z-score was inactive: 0.209.

As for CCAAAGGAAUGCGUUUUACTT against Msh2, the z-score is inactive: 1.83.

As to GGCAGACUCUGCCUACUUATT against Utf1, the z-score was inactive: 1.01.

Take GGAUGGACAACAUCAAACATT against Ltbp2: the z-score is inactive: 0.678.

As to GGUCACGGAACAAAAAACCTT against Tnrc6b, the z-score was inactive: -0.119.

In the case of GGAGAAAACACAAUGUCUUTT against Limd1, the z-score was inactive: 0.441.

For the sequence GCUGACAAAGUCGUUUCCUTT against Olfr732, the z-score was inactive: -0.74.

In the case of CGAGUAUGCCGAAAACACUTT against Car6, the z-score is inactive: 0.41.

CCAGUGAUUAAUGUGACCUTT against BC048679: the z-score is inactive: -1.9.

Turning to GGCCAGCUCUCUUUUGCUATT against Cflar, the z-score is active: 2.5.

In the case of GGGUGCGGAAAUUCAUUAATT against Mpv17l2, the z-score is inactive: 0.803.

With GGAAUAAAGUGUUGUGUCATT against Wfdc15b, the z-score is inactive: -0.118.

In the case of CCUGAAAGAUGCUCUCUAUTT against Inpp4b, the z-score was active: 4.27.

Consider GGUGGAAUUUACAUAAUGATT against Igsf11, for which the z-score was inactive: 0.839.

With GGCCAACAAGAUUCUAGAGTT against Slc44a2, the z-score is inactive: 1.34.

In the case of GGUGUUAGAAGUCAACGGUTT against Pard6b, the z-score was inactive: 0.482.

Turning to GGGCAAACUCAUUUUUUGATT against F10, the z-score was inactive: -0.157.

Regarding CCACAGAACAGCCAUCAUGTT against Ankrd7, the z-score was inactive: 0.0949.

“GGAAUUCUCUCAGCAGAAGTT against 1110038F14Rik”: the z-score was active: -2.17.

For the sequence GGGUCUUAUGGAAGUGUUUTT against Stk3, the z-score is active: 7.27.

Take GGACGCAUGAUGUGGGUUCTT against Tmem41a: the z-score is inactive: -0.626.

For the sequence GGCUGUUCAAAAAUUUCGGTT against Sox17, the z-score is inactive: -0.261.
